{
  "source": "patent US10413579B2",
  "about": "“Pharmaceutical composition for preventing or treating asthma comprising Pistacia weinmannifolia J. Poiss. ex Franch extract or fraction thereof” (Korea Research Institute of Bioscience and Biotechnology, priority 2013, dated 2019)",
  "test_system": "ovalbumin-sensitized asthma animal models",
  "test": "Airway hyperresponsiveness (Penh, methacholine) in ovalbumin-sensitized asthma animal model",
  "assay_type": "in vivo, mouse",
  "details": "30 mg/kg PO 1 hour prior to ovalbumin inhalation; methacholine 12, 25, 50 mg/ml; compared to OVA group",
  "note": "At least one structure is not confirmed: it was looked up by name or label, or the drawing left a doubt.",
  "data": [
    {"smiles": "CC(C)(O)c1ccccc1CC[C@@H](SCC1(CC(=O)O)CC1)c1cccc(/C=C/c2ccc3ccc(Cl)cc3n2)c1", "note": "[Mon, montelukast]", "values": [
      {"measurement": "Penh value (airway hyperresponsiveness)", "value": "significantly decreased"}
    ]}
  ]
}
